# Experimental data taken from PubChem BioAssay AID1347426 (Functional Genomics Laboratory (NCATS/FGL), 2020).
# The whole screen tested about 31,000 sequences, of which about 1,400 (4.5%) were called active.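 How the source made its calls: active means median seed-adjusted z-score above 1 or below -1; inactive means the rest.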 Some of the results follow.
# Assay: Novel Modifiers of Survival Motor Neuron (SMN) Protein: Gene Identification via Genome-wide siRNA Screen;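 further: luminescence tracks full-length SMN protein made from the SMN2 reporter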
# Settings: HEK293T SMN2-luciferase reporter, siRNA knockdown, 72 h; actives lie on both sides
# Method in brief: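 Luciferase signal, proportional to full-length SMN made from an SMN2 cDNA reporter in stable HEK293T cells, was read 72 h after siRNA reverse transfection. Values were expressed as MAD scores after non-targeting-control normalization and log10 conversion; seed analysis flagged off-targets.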
row,Sequence,median seed-adjusted z-score
1,CUACUGGGCUCGUCUCUUUTT against FOXL2,inactive: -0.166
2,GGAGUGUGGAAGUCCAUAATT against CD38,inactive: 0.192
3,CGCAAAAUCUUCUAACGCATT against POU2F1,inactive: 0.317
4,GACUAGUUAUAUCCAACAATT against TRIM37,inactive: -0.108
5,GAAUUGUCUUAAGUGUAGATT against C1GALT1C1,inactive: 0
6,GGGAGCAAUUGGUAAGGCATT against GARS,inactive: 0.138
7,CGACAAGUUGAAGACCAUATT against CRMP1,inactive: -0.354
8,CAAGGAGAUUGAGAGCUUUTT against GPX7,inactive: -0.971
9,CACGAGUGAUUCAGAUAUATT against MORC1,inactive: -0.719
10,ACACAGUUGCGUGCACUGATT against TNXB,inactive: -0.0996
11,CAACAGCCGUAGCAUUUUUTT against STX10,inactive: 0.772
12,GCAAAGGAAUUGCUAGUAATT against LIPC,inactive: 0.244
13,CCUGGAUCUUGAUAAGUUUTT against FMNL3,inactive: 0.481
14,CACCUAUCACCGAAAUGGATT against SEMA3G,inactive: 0.00615
15,CAACAAUGUGGUUCCUAUUTT against RAB11A,inactive: -0.0554
16,GCUCAACAUCGAUCACCUUTT against TNNT3,inactive: -0.293
17,CCAGGAAGCUAUAUGAGAATT against TMPO,inactive: -0.0406
18,UGUAUUCACUAGACAAGUATT against ARR3,inactive: -0.0936
19,CAAGGAGAGGCAUAACGUATT against DNASE1L3,inactive: 0.0678
20,CAUCAGGCGCGAUAUCUUUTT against SLC27A4,inactive: 0.119
21,CAGUCCCAAUAAUCACGAATT against ARPC1A,inactive: -0.433
22,AGACCUUCCUGGUGAAUGATT against LRFN1,inactive: 0.605
23,GCUCCAGUCUUUUCGCAAATT against DSG4,inactive: -0.0211

row,Sequence,median seed-adjusted z-score
1,UCUUCUUUUUCGUUCCUUUTT against TLX3,inactive: 0.0771
2,AUAUGGAACAGUGAACUUATT against EDEM2,inactive: 0.36
3,GCAUUUAGUUCACUGGAAUTT against CA5A,inactive: -0.0668
4,GAGCGAUAUGAAAUCGUUATT against CLK2,inactive: -0.0591
5,CCCUGAUAAUGGUAGCCCATT against SLC4A4,inactive: 0.43
6,CAUUGACUAUAGAAUGAGATT against SNRPN,inactive: -0.571
7,UGGACGCCCUCAGAAAAGATT against HES4,inactive: 0.705
8,CCAUUGACGUGAAAUCGAUTT against PDE8B,inactive: 0.217
9,GGAUUGCCGGUACAGCAAATT against CABIN1,inactive: -0.446
10,GGAUCGGUGUAGUUAAAAATT against OLIG3,inactive: -0.598
11,GGAACUAAAAGGAAAGAUUTT against ARG1,inactive: -0.108
12,CAGAAGACAUUAUCGUGAUTT against TDO2,inactive: -0.141
13,CCACGUACCCUUCAUCAAATT against KIF11,inactive: -0.381
14,GGAAGAAUCGCGUCCAGAATT against ZDHHC9,inactive: -0.495
15,GGUCGUGCGUUACCCAAAATT against ZNF618,inactive: 0.311
16,CCACAAUUGUUGUUCACAUTT against PDC,inactive: -0.541
17,CCUCAUUUGUCCACAUAGATT against IPO5,inactive: -0.299
18,GAACGGAGCUUUGACUGUATT against GFI1,inactive: -0.047
19,CGACAUUGGUGACCCUCUUTT against DDOST,inactive: -0.315
20,GCCUCAUCUAGACACGGAATT against SP110,inactive: -0.788
21,GCGAAUACAGUAUGCAAAATT against SNRPB2,inactive: -0.967
22,CAAUGGGAAUGCACUCAUATT against CTSS,inactive: 0.123
23,CUCUCACCGAUGUCAAUGATT against CDH12,inactive: -0.0663

# Five consecutive records out of the list so far, quoted:
row,Sequence,median seed-adjusted z-score
22,AGACCUUCCUGGUGAAUGATT against LRFN1,inactive: 0.605
23,GCUCCAGUCUUUUCGCAAATT against DSG4,inactive: -0.0211
1,UCUUCUUUUUCGUUCCUUUTT against TLX3,inactive: 0.0771
2,AUAUGGAACAGUGAACUUATT against EDEM2,inactive: 0.36
3,GCAUUUAGUUCACUGGAAUTT against CA5A,inactive: -0.0668

# The list goes on.

row,Sequence,median seed-adjusted z-score
1,AGAGUUCAGUACUCAUUGATT against ZNF323,inactive: -0.319
2,AGAAGAUUAACAUGAUAUCTT against SSX3,inactive: 0
3,GGAAUUCUUUGGGCUGAAATT against MMP1,inactive: 0.205
4,GUCCUACGAUCCCAAUUAATT against CR1,inactive: 0.143
5,CCAAACAACUUCCAACUAATT against PNLIPRP2,inactive: -0.022
6,GCAACCUUUGAUUACCUAUTT against FRRS1,inactive: -0.4
7,ACCGAAACCUUCUACCUCATT against ARHGAP4,inactive: 0.784
8,GUUCCAUCUUGAUCGAGUATT against RASSF9,inactive: 0.314
9,AGCUCAUUGCGGAAUCCAATT against GPKOW,inactive: -0.239
10,GGGUCAUGUAGGUACAACATT against MAPKAP1,inactive: -0.0499
11,GACUCCAAAGUAGAAGUAATT against EIF4EBP2,inactive: 0.517
12,CGAUGUAAGGGAUCAUUAUTT against CCNT2,inactive: -0.836
13,CGAGAUAAUGCAAUACCAATT against PRKRIR,inactive: 0
14,GGCUUCAUUUUAUCCGGGATT against PLOD2,inactive: -0.281
15,CGGUGAUAGAUGUGAUUGATT against GALNTL2,inactive: 0.164
16,AAGUGACCCUAAGAAGAUATT against ZNF117,inactive: 0.616
17,CAUUCGCAAAGGUAUCAUUTT against SLC20A2,inactive: -0.0546
18,CUGUUGGAUUGAUUCGAAATT against CTNNB1,inactive: 0.0802
19,GGGAUUCACUGUCAGCACATT against EDIL3,inactive: 0
20,GCAAAUCUAUUUUCGGAAATT against AGTPBP1,inactive: -0.201
21,GCUUUAAACCAGACCAAGATT against VSX2,inactive: -0.333
22,CAGCUUCUGUGGUUAAGCATT against ADSL,inactive: 0
